The results in this text go back to paper PMC12394690.

Sequences of proteins named here, by UniProt entry; tags and fusion partners are left off.
UniProt O00327: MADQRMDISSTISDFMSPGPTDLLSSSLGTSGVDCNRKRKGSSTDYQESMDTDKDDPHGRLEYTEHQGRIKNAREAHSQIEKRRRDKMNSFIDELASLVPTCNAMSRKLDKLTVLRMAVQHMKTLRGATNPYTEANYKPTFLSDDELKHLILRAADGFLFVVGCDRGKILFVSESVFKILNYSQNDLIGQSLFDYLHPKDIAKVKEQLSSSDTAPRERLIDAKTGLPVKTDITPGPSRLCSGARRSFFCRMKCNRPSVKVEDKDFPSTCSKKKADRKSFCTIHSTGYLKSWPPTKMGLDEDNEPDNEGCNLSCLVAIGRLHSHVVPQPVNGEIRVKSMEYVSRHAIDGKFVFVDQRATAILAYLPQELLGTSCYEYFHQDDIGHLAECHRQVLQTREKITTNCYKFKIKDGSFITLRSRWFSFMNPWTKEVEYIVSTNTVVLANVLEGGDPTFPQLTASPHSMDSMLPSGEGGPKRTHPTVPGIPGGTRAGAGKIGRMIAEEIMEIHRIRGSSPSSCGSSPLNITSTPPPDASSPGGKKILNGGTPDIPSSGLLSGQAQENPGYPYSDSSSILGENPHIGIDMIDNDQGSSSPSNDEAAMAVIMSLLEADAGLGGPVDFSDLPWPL

The target in experiment [1] is T1, DDB1- and CUL4-associated factor 7 (DCAF7), expressed from a plasmid (UniProt P61962).
T1 sequence: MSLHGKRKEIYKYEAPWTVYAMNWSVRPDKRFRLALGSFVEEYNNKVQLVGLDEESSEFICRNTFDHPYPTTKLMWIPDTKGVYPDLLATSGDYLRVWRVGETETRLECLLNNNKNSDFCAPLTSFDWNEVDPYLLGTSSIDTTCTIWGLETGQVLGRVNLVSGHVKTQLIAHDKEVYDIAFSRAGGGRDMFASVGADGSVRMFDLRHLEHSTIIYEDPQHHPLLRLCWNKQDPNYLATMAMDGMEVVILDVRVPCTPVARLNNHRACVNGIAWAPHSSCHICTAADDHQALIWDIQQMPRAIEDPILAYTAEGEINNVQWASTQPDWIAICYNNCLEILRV
Put plainly: co-IP; co-immunoprecipitation of DCAF7 and BMAL1, exogenously or endogenously.

Experiment [2] has as its target T1, DDB1- and CUL4-associated factor 7 (DCAF7), expressed from a plasmid. Put plainly: co-IP; DCAF7-p62 interaction in the absence or presence of overexpressed USP2b.
Experiment [3] concerns the target Brain and muscle ARNT-like 1 (BMAL1), expressed from a plasmid (UniProt O00327). Put plainly: co-IP; BMAL1-p62 interaction in the absence or presence of overexpressed DCAF7 or USP2b.
Experiment [4] concerns the target T2, DCAF7, endogenous (human (endogenous; all cell lines of the paper are human)) (UniProt P61962).
T2 sequence: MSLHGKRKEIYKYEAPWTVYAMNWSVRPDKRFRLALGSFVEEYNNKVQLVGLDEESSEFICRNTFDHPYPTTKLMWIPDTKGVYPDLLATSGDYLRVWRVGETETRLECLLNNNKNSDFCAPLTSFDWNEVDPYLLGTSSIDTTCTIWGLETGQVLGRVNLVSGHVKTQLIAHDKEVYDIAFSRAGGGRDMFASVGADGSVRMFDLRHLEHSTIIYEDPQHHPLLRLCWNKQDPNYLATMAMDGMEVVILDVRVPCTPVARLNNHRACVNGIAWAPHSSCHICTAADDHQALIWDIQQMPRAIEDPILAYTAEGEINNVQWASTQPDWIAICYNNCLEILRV
Briefly: co-IP; co-immunoprecipitation of DCAF7 and BMAL1, exogenously or endogenously.

The target of experiment [5] is T3, DCAF7 of the GST pull-down (UniProt P61962).
T3 sequence: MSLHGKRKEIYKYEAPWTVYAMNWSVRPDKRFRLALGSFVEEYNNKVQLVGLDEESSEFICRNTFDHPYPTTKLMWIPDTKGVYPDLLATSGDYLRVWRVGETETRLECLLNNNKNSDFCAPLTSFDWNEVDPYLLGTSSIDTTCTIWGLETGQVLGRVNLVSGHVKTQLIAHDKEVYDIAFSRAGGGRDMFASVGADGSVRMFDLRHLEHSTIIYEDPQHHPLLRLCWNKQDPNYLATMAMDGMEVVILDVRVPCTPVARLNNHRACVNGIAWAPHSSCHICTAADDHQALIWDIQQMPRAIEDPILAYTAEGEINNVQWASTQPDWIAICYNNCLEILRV
Put plainly: pull-down; GST pull-down in vitro; the paper calls the binding direct; which partner carried GST is not told.

No constants are given. Whether binding was seen depends on the method and setting. Binding seen in cells or lysates may run through a third protein. Some entries that bind do so weakly or less than the wild type. For some assays here: Where a sequence is shown, tags or fusion partners need not be part of it.

Regarding “Brain and muscle ARNT-like 1 (BMAL1), expressed from a plasmid (from UniProt O00327 1-626)”, the binding entry in experiment [1] is listed as “binds”. Turning to “sequestosome-1 (SQSTM1 or p62) (from UniProt Q13501 1-440)”, the binding result in experiment [2] and in experiment [3] was “binds” each time. On to “BMAL1, endogenous (from UniProt O00327 1-626)”, for which, in experiment [4], the binding result was “binds”.

B1: USP2a of the GST pull-down (enzyme, UniProt O75604-1 1-605)
chain: MSQLSSTLKRYTESARYTDAHYAKSGYGAYTPSSYGANLAASLLEKEKLGFKPVPTSSFLTRPRTYGPSSLLDYDRGRPLLRPDITGGGKRAESQTRGTERPLGSGLSGGSGFPYGVTNNCLSYLPINAYDQGVTLTQKLDSQSDLARDFSSLRTSDSYRIDPRNLGRSPMLARTRKELCTLQGLYQTASCPEYLVDYLENYGRKGSASQVPSQAPPSRVPEIISPTYRPIGRYTLWETGKGQAPGPSRSSSPGRDGMNSKSAQGLAGLRNLGNTCFMNSILQCLSNTRELRDYCLQRLYMRDLHHGSNAHTALVEEFAKLIQTIWTSSPNDVVSPSEFKTQIQRYAPRFVGYNQQDAQEFLRFLLDGLHNEVNRVTLRPKSNPENLDHLPDDEKGRQMWRKYLEREDSRIGDLFVGQLKSSLTCTDCGYCSTVFDPFWDLSLPIAKRGYPEVTLMDCMRLFTKEDVLDGDEKPTCCRCRGRKRCIKKFSIQRFPKILVLHLKRFSESRIRTSKLTTFVNFPLRDLDLREFASENTNHAVYNLYAVSNHSGTTMGGHYTAYCRSPGTGEWHTFNDSSVTPMSSSQVRTSDAYLLFYELASPPSRM
Consider B1, for which the binding result in experiment [5] is on record as “binds”.
